Results taken from publication PMC12226361.
These are yes or no findings as the source states them, for the method shown. In cells and extracts the contact can be indirect. A yes stands for co-enrichment or nearness to the bait. Other partners may have been found. For part of these data: Sequences can lack the tags named with a protein.

Amino acid sequences for entries named in this document (tags omitted).
UniProt Q7Z6Z7: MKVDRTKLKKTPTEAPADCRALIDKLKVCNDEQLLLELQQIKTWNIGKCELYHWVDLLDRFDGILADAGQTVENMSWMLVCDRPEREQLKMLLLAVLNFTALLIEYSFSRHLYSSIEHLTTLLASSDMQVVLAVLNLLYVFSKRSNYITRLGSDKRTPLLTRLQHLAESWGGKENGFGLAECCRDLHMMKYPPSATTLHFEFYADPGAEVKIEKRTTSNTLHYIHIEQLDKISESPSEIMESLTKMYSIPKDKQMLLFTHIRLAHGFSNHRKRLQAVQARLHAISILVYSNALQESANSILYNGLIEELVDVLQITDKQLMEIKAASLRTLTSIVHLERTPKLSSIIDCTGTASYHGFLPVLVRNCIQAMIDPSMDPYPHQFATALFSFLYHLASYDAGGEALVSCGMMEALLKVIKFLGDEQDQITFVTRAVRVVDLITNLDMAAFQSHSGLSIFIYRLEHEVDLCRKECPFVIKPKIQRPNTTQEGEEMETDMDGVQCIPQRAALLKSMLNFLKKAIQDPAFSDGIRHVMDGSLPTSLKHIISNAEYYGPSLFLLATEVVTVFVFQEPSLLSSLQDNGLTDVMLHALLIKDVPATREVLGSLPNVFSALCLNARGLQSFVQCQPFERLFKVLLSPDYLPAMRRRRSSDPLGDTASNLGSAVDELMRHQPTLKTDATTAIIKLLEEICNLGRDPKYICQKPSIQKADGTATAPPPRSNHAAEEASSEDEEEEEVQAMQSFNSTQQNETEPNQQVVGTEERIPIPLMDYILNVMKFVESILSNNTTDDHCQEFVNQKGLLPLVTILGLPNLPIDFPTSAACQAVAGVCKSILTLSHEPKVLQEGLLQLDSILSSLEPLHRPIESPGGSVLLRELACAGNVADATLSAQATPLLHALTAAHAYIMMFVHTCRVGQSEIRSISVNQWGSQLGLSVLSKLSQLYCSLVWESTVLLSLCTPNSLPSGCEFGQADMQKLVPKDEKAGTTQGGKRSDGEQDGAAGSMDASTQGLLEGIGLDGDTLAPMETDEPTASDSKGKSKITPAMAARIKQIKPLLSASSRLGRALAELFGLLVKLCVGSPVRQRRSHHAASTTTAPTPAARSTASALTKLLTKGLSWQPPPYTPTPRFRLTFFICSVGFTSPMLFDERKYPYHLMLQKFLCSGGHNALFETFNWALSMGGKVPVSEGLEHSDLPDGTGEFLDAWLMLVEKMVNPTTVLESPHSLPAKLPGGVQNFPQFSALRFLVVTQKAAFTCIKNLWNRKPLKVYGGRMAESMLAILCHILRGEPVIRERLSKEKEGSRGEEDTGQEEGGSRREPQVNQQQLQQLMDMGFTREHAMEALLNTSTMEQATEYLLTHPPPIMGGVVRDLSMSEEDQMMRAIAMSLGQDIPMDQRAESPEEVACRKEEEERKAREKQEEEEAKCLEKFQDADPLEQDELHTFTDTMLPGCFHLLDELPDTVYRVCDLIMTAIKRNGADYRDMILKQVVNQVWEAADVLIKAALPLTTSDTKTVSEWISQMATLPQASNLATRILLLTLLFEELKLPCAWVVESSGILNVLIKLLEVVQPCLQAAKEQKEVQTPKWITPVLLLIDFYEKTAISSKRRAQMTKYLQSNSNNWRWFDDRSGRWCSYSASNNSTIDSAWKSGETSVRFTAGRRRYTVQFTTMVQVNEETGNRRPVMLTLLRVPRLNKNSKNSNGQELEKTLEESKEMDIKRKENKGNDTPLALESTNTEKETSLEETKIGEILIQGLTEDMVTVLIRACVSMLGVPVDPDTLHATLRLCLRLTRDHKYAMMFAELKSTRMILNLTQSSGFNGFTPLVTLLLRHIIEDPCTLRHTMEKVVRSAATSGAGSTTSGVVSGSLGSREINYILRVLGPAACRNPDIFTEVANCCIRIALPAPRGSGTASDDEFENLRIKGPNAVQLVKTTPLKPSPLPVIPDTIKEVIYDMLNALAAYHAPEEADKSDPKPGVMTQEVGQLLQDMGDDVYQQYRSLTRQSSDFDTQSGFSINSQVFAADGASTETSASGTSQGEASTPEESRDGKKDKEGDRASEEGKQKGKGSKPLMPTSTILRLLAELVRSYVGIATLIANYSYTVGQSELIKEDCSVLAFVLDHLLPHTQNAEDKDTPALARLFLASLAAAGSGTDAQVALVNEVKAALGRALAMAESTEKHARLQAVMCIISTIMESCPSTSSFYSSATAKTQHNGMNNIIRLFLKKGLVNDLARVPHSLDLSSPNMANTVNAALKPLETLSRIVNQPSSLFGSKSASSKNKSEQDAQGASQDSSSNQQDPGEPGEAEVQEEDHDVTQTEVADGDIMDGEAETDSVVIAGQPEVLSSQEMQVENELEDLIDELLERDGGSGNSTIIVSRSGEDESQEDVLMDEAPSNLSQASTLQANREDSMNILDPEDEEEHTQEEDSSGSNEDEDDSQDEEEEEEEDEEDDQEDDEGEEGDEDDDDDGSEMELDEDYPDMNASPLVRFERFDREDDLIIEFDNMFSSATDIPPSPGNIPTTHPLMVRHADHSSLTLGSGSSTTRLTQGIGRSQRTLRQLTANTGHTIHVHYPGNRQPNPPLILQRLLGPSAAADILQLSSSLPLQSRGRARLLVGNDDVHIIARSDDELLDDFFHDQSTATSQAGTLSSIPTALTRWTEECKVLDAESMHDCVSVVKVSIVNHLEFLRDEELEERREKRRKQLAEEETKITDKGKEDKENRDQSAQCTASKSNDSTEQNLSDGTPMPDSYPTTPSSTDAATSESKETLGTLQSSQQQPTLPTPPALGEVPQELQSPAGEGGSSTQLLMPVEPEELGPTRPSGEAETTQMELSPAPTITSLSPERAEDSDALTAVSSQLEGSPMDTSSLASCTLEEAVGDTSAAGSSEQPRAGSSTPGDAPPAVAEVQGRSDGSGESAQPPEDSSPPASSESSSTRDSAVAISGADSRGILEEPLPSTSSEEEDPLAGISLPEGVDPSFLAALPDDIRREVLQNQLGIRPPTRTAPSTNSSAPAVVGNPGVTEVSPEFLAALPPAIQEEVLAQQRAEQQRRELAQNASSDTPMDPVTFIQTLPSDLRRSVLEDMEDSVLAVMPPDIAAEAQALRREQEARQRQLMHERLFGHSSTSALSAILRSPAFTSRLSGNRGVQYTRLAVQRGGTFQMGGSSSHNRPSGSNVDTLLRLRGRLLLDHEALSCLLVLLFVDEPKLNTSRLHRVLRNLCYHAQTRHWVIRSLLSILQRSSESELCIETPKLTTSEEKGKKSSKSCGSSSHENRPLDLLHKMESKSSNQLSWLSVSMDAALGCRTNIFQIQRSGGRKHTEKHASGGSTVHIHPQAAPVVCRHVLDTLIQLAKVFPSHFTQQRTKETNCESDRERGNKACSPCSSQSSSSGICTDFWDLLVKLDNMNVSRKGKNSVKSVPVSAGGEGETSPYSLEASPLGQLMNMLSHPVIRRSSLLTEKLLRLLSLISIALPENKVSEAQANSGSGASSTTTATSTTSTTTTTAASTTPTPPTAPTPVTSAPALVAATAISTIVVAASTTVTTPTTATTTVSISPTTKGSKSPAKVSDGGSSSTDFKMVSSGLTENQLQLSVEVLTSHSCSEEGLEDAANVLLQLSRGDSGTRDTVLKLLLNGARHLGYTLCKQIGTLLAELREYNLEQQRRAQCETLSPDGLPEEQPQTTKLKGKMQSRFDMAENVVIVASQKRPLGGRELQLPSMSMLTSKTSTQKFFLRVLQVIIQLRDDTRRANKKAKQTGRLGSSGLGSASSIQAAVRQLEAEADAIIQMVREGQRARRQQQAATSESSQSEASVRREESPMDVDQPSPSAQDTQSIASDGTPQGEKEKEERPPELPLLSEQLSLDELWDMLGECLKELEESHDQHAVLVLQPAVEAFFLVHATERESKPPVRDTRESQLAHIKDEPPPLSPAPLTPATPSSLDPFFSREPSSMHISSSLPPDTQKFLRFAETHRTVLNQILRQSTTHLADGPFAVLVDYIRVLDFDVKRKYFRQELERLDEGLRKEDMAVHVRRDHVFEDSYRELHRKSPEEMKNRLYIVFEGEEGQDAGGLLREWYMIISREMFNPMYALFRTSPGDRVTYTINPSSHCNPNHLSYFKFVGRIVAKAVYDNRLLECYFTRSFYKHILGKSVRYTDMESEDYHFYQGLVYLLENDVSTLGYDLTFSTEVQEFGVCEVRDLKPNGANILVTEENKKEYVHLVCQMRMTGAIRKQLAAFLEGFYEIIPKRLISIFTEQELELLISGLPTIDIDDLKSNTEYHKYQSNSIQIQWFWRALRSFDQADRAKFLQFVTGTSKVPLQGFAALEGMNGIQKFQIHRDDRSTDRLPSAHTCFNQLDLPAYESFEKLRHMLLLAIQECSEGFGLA
UniProt P54252: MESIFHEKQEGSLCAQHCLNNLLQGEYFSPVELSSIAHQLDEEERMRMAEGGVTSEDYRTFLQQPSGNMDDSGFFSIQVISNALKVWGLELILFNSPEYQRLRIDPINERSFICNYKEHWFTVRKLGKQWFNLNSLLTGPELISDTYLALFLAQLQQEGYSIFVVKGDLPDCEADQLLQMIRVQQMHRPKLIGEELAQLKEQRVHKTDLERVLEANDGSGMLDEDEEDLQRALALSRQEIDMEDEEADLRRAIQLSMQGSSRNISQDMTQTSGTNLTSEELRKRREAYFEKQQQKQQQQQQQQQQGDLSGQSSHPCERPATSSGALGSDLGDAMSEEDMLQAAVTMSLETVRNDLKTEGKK
UniProt Q07820: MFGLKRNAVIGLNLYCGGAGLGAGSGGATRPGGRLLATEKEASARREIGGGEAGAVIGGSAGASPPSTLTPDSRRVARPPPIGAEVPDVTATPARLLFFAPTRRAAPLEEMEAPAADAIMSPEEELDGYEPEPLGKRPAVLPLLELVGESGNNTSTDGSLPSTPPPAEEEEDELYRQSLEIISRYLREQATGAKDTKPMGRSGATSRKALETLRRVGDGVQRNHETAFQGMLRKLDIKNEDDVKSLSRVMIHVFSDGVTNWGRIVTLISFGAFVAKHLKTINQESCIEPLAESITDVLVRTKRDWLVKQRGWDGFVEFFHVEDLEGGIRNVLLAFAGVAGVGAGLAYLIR

T1: TurboID-tagged RNF10 (UniProt Q8N5U6)
T1 sequence: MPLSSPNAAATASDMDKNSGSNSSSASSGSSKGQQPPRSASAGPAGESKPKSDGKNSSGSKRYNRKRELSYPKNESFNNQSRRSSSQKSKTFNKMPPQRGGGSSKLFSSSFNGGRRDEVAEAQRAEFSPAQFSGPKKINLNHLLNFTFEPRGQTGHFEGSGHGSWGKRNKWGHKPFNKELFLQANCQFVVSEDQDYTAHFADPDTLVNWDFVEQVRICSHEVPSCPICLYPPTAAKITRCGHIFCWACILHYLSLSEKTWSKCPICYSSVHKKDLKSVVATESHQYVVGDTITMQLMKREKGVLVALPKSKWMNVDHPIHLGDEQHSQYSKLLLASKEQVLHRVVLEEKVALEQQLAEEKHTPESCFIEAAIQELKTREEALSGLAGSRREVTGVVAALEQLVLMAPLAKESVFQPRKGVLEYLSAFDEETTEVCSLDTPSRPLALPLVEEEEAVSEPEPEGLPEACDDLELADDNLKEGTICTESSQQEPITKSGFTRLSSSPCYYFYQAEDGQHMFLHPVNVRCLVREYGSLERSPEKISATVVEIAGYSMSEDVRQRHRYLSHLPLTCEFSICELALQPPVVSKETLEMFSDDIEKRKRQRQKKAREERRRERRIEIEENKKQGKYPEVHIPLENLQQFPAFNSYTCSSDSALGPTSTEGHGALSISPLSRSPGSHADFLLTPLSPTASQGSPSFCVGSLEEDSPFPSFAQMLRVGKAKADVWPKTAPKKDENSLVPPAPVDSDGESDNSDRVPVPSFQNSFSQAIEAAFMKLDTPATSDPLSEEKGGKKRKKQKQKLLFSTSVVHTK

B1: iRQC factor RIOK3 (protein, UniProt O14730 1-519)
chain: MDLVGVASPEPGTAAAWGPSKCPWAIPQNTISCSLADVMSEQLAKELQLEEEAAVFPEVAVAEGPFITGENIDTSSDLMLAQMLQMEYDREYDAQLRREEKKFNGDSKVSISFENYRKVHPYEDSDSSEDEVDWQDTRDDPYRPAKPVPTPKKGFIGKGKDITTKHDEVVCGRKNTARMENFAPEFQVGDGIGMDLKLSNHVFNALKQHAYSEERRSARLHEKKEHSTAEKAVDPKTRLLMYKMVNSGMLETITGCISTGKESVVFHAYGGSMEDEKEDSKVIPTECAIKVFKTTLNEFKNRDKYIKDDFRFKDRFSKLNPRKIIRMWAEKEMHNLARMQRAGIPCPTVVLLKKHILVMSFIGHDQVPAPKLKEVKLNSEEMKEAYYQTLHLMRQLYHECTLVHADLSEYNMLWHAGKVWLIDVSQSVEPTHPHGLEFLFRDCRNVSQFFQKGGVKEALSERELFNAVSGLNITADNEADFLAEIEALEKMNEDHVQKNGRKAASFLKDDGDPPLLYDE
B2: HAPSTR1 (protein, UniProt Q14CZ0 1-275)
chain: MEERKEEGEAEIQEHGPEHWFSKWERQCLAEAEQDEQLPPELQEEAAAAAQPEHKQQKLWHLFQNSATAVAQLYKDRVCQQPGLSLWVPFQNAATAVTNLYKESVDTHQRSFDIGIQIGYQRRNKDVLAWVKKRRRTIRREDLISFLCGKVPPPRNSRAPPRLTVVSPNRATSTETSSSVETDLQPFREAIALHGLSGAMASISVRSSTPGSPTHVSSGSNASRRRNGLHDVDLNTFISEEMALHLDNGGTRKRTSAQCGDVITDSPTHKRNRMI
B3: VCPIP1 (protein, UniProt Q96JH7 1-1222)
chain: MSQPPPPPPPLPPPPPPPEAPQTPSSLASAAASGGLLKRRDRRILSGSCPDPKCQARLFFPASGSVSIECTECGQRHEQQQLLGVEEVTDPDVVLHNLLRNALLGVTGAPKKNTELVKVMGLSNYHCKLLSPILARYGMDKQTGRAKLLRDMNQGELFDCALLGDRAFLIEPEHVNTVGYGKDRSGSLLYLHDTLEDIKRANKSQECLIPVHVDGDGHCLVHAVSRALVGRELFWHALRENLKQHFQQHLARYQALFHDFIDAAEWEDIINECDPLFVPPEGVPLGLRNIHIFGLANVLHRPIILLDSLSGMRSSGDYSATFLPGLIPAEKCTGKDGHLNKPICIAWSSSGRNHYIPLVGIKGAALPKLPMNLLPKAWGVPQDLIKKYIKLEEDGGCVIGGDRSLQDKYLLRLVAAMEEVFMDKHGIHPSLVADVHQYFYRRTGVIGVQPEEVTAAAKKAVMDNRLHKCLLCGALSELHVPPEWLAPGGKLYNLAKSTHGQLRTDKNYSFPLNNLVCSYDSVKDVLVPDYGMSNLTACNWCHGTSVRKVRGDGSIVYLDGDRTNSRSTGGKCGCGFKHFWDGKEYDNLPEAFPITLEWGGRVVRETVYWFQYESDSSLNSNVYDVAMKLVTKHFPGEFGSEILVQKVVHTILHQTAKKNPDDYTPVNIDGAHAQRVGDVQGQESESQLPTKIILTGQKTKTLHKEELNMSKTERTIQQNITEQASVMQKRKTEKLKQEQKGQPRTVSPSTIRDGPSSAPATPTKAPYSPTTSKEKKIRITTNDGRQSMVTLKSSTTFFELQESIAREFNIPPYLQCIRYGFPPKELMPPQAGMEKEPVPLQHGDRITIEILKSKAEGGQSAAAHSAHTVKQEDIAVTGKLSSKELQEQAEKEMYSLCLLATLMGEDVWSYAKGLPHMFQQGGVFYSIMKKTMGMADGKHCTFPHLPGKTFVYNASEDRLELCVDAAGHFPIGPDVEDLVKEAVSQVRAEATTRSRESSPSHGLLKLGSGGVVKKKSEQLHNVTAFQGKGHSLGTASGNPHLDPRARETSVVRKHNTGTDFSNSSTKTEPSVFTASSSNSELIRIAPGVVTMRDGRQLDPDLVEAQRKKLQEMVSSIQASMDRHLRDQSTEQSPSDLPQRKTEVVSSSAKSGSLQTGLPESFPLTGGTENLNTETTDGCVADALGAAFATRSKAQRGNSVEELEEMDSQDAEMTNTTEPMDHS

Target: T1, TurboID-tagged RNF10
Test: proximity labelling; TurboID-RNF10 in 293 Flp-In cells (24 h doxycycline), 100 uM biotin for 60 min at 37 °C; streptavidin-agarose enrichment from NP-40 lysate, DIA mass spectrometry; differential analysis against TurboID-eGFP controls of varied expression

binding, binds:
B1

Target: TurboID-HUWE1 (UniProt Q7Z6Z7)
Test: proximity labelling; TurboID-HUWE1 in 293T and HAP1 cells (PiggyBac, 24 h doxycycline), 100 uM biotin for 60 min; streptavidin-agarose enrichment, DIA mass spectrometry; differential analysis against several TurboID-eGFP controls of varied doxycycline induction time

binding, binds:
ATXN3 (from UniProt P54252 1-361)
VCP (from UniProt P55072 1-806)
MCL1 (from UniProt Q07820 1-350)
B2
B3
